The source of these data is paper PMC3857839.

Amino acid sequences for entries named in this document (tags omitted). A change or cut given only in a name is not applied to a line headed by its entry. Residues count along the entry.
UniProt P54760, 16-987: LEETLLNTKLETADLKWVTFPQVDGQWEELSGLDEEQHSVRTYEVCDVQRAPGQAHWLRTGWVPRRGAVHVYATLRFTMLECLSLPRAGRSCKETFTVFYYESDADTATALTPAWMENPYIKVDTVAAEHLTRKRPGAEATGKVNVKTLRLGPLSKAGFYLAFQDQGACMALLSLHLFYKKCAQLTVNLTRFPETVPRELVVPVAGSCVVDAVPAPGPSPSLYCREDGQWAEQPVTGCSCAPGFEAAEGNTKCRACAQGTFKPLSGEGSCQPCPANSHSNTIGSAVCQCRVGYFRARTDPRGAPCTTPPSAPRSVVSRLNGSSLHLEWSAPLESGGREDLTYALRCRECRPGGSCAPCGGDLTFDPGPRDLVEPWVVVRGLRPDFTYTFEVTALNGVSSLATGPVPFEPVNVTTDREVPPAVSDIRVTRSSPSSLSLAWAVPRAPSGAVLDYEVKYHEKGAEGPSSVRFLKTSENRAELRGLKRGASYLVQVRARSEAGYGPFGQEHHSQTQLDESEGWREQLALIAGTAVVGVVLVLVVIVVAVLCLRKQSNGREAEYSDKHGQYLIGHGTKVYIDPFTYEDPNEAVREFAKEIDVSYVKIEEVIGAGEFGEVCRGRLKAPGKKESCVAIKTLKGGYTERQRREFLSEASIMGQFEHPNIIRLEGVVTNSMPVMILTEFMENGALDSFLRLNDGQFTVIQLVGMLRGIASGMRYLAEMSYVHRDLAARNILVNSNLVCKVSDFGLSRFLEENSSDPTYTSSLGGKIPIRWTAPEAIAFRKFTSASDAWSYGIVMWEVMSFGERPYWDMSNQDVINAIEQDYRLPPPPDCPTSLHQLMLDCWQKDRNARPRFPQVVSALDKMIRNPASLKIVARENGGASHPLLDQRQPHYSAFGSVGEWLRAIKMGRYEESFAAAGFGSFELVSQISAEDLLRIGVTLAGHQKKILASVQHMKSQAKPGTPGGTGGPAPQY
UniProt P52800, 29-232: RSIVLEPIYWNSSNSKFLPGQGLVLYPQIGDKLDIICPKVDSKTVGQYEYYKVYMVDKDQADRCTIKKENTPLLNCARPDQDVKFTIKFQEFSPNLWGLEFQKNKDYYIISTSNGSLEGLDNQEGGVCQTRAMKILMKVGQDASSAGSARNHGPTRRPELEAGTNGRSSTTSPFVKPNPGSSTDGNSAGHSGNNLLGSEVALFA
UniProt P52800, 29-336: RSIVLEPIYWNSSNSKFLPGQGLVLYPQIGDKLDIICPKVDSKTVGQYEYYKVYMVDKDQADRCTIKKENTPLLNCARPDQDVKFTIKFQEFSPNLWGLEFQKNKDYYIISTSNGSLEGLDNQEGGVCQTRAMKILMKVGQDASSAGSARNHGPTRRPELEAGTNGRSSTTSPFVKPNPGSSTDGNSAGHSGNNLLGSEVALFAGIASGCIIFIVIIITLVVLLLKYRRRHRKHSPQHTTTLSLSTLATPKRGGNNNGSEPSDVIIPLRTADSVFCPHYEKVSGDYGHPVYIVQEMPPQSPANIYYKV

Like-named read-outs stand apart in the source and are kept apart here. No constants are given. Whether binding was seen depends on the method and setting. For part of these data: In cells and extracts the contact can be indirect. Some results given as binding are weak or reduced against the parent protein; the word gives no strength. For part of these data: Where a sequence is shown, tags or fusion partners need not be part of it.

The target in test [1] is T1, EphA3 (human) (UniProt P29320).
T1 sequence: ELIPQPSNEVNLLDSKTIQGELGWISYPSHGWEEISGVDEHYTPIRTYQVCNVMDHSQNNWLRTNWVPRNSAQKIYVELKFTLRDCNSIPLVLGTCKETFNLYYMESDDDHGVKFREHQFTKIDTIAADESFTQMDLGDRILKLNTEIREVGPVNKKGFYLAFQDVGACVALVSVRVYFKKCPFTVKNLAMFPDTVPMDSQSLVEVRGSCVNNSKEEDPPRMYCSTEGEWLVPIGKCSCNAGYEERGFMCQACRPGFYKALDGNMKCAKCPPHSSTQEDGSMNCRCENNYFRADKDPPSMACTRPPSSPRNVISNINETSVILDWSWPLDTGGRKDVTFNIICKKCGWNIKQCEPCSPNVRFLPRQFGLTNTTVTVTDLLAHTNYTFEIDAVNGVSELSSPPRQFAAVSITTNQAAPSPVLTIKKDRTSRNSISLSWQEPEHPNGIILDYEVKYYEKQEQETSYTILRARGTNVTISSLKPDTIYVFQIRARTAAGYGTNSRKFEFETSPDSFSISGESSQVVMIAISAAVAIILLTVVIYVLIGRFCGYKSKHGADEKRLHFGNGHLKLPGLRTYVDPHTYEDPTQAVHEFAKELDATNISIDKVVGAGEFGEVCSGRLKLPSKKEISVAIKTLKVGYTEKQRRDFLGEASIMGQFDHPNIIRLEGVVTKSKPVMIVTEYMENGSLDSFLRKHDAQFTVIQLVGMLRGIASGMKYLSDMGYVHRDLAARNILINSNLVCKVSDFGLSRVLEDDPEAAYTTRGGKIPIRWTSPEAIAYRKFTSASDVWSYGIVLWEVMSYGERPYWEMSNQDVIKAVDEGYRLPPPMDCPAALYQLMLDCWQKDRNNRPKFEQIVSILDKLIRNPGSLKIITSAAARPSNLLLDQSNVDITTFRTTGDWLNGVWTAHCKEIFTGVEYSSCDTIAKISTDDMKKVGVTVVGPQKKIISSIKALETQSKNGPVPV

In test [2] the target is EphB4 (human (endogenous in A549)) (UniProt P54760).
Test [3] shares this target. This is another data set of the same source.
In test [4] the target is T2, EphA3 ΔN (human) (UniProt P29320).
T2 sequence: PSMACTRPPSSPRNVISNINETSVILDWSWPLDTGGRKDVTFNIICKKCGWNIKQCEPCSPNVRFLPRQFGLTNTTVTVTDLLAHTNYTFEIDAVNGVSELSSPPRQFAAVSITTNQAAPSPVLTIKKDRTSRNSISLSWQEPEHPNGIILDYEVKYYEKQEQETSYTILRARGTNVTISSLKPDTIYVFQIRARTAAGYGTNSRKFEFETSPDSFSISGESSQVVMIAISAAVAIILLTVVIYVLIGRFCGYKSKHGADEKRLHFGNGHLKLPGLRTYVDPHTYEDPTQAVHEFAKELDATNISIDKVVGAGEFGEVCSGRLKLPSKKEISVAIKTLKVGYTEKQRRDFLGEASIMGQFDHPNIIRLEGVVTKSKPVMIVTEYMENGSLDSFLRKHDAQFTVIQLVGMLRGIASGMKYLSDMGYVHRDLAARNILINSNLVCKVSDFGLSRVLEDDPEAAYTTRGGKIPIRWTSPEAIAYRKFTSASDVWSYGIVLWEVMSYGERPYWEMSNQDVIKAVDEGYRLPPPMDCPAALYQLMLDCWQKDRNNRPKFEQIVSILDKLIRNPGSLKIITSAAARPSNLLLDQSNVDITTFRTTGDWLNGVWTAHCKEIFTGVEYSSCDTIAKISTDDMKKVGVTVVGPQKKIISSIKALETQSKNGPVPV
Kind of test: co-IP; HEK AD-293 cells lysed in Triton X-100 buffer, precleared, 3 hours at 4 °C with anti-EphA3 monoclonal antibody on GammaBind Plus sepharose beads; immunoblot with anti-ephrin-A3 antiserum. (In general: A western blot detects proteins with antibodies after separation by electrophoresis.)

The target in test [5] is T3, EphA3 ΔN G518L mutant (human) (UniProt P29320).
T3 sequence: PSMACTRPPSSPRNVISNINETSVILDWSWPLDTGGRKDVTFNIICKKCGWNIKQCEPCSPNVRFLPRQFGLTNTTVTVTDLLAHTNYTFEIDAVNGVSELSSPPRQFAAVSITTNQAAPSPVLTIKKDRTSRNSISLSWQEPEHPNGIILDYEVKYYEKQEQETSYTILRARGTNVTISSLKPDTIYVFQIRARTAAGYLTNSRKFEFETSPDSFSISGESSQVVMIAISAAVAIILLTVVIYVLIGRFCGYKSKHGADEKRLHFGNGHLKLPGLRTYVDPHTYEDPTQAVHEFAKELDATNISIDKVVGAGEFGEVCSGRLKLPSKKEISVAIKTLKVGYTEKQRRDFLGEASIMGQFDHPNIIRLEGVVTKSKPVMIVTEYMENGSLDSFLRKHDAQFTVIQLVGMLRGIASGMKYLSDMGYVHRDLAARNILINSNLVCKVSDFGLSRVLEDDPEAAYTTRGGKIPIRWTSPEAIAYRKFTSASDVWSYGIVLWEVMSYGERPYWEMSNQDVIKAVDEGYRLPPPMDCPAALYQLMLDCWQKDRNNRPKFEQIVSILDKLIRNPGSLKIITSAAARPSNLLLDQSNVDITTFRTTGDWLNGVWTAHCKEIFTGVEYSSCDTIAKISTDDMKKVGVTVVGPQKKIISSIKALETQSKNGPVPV
The test is described as above.

Test [6] has as its target T4, full-length EphA3 (human) (UniProt P29320).
T4 sequence: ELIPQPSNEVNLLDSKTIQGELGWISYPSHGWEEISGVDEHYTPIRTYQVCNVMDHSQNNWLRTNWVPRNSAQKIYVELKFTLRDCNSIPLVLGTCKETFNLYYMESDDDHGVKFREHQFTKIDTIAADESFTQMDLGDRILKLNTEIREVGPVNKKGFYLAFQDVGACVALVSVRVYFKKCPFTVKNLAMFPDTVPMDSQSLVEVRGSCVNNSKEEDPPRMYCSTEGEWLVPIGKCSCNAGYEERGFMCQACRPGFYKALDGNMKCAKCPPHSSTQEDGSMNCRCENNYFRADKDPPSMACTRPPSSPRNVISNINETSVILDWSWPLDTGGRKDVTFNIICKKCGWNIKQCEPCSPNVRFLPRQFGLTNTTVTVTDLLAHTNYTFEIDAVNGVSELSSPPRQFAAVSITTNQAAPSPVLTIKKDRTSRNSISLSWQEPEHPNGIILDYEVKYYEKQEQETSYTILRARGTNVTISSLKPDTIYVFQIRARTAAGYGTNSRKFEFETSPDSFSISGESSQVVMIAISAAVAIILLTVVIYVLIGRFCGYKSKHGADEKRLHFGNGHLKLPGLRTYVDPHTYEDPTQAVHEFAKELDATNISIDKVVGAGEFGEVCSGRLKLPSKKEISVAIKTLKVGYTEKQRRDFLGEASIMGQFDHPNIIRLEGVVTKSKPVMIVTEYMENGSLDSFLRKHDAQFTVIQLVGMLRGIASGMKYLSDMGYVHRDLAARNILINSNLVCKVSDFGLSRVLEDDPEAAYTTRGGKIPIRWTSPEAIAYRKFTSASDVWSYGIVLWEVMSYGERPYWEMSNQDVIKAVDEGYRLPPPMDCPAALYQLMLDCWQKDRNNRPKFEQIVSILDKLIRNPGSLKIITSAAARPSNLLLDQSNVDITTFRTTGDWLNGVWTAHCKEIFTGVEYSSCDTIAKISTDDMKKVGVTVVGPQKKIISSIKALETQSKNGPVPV
The test is described as above.

Test [7] concerns the target T5, EphA3 Fc (UniProt P29320).
T5 sequence: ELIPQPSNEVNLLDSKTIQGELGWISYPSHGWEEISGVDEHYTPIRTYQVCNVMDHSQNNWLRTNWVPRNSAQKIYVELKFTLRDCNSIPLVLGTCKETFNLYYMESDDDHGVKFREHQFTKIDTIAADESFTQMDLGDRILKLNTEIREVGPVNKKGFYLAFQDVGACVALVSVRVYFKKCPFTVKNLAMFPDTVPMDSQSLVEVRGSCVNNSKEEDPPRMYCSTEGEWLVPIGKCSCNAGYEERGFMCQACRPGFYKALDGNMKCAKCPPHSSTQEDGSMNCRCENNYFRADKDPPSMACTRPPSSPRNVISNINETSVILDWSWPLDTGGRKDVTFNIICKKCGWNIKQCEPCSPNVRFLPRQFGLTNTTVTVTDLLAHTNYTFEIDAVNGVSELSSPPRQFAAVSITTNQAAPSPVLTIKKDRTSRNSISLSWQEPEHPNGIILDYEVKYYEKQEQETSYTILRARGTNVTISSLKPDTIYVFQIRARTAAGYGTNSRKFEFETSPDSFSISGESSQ
Kind of test: pull-down; 1 µg EphA3 Fc immobilised on GammaBind Plus sepharose beads, 1 hour at 4 °C with precleared lysates (modified RIPA buffer) of A549 or H226 cells; immunoblot with anti-dsRed antibody; only the target purified.

The target in test [8] is T1, EphA3 (human). This is another data set of the same source.
For test [9], the target named is T6, full-length EphA3 G518L mutant (human) (UniProt P29320).
T6 sequence: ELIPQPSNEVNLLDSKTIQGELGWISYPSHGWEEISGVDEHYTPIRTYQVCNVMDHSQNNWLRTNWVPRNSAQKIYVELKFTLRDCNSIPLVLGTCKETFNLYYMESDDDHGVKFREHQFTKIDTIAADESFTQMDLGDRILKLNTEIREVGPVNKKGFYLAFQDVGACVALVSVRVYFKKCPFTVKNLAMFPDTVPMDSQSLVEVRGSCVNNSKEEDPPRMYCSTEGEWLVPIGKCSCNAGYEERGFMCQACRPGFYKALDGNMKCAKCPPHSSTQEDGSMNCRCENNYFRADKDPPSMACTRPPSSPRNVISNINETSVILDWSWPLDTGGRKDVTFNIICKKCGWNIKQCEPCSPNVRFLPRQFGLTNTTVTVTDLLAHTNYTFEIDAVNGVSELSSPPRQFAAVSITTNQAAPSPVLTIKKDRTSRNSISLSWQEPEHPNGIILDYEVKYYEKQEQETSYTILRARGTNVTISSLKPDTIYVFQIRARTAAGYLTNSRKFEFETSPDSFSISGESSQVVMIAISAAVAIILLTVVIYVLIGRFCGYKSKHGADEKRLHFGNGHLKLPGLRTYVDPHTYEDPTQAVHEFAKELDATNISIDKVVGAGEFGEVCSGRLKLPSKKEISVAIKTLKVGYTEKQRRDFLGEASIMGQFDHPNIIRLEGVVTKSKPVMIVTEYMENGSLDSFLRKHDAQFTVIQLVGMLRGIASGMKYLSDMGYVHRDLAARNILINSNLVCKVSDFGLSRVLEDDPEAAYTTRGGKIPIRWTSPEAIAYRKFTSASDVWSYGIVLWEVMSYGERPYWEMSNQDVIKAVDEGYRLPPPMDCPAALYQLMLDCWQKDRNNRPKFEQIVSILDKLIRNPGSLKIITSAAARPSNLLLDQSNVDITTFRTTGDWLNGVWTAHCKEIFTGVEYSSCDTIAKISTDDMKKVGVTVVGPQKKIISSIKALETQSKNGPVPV

Test [10] concerns the target T6, full-length EphA3 G518L mutant (human). The source holds these as a separate data set.

As to “ephrin-B2 AP (from UniProt P52800 29-232) (ligand)”, the binding entry is reported as “binds weakly” in test [1] and “binds” in test [2].
On to “EGFP-ephrin-B2 (from UniProt P52800 29-336) (ligand)”, for which the binding entry in [3] is “binds”.

B1: mCherry-ephrin-A3 (ligand, UniProt O08545 23-206)
chain: QGPGGALGNRHAVYWNSSNQHLRREGYTVQVNVNDYLDIYCPHYNSSGPGGGAEQYVLYMVNLSGYRTCNASQGSKRWECNRQHASHSPIKFSEKFQRYSAFSLGYEFHAGQEYYYISTPTHNLHWKCLRMKVFVCCASTSHSGEKPVPTLPQFTMGPNVKINVLEDFEGENPQVPKLEKSISG
With B1, the binding result in test [4], in [5], in test [6], in test [7], in test [8] and in test [9] was “binds” throughout.

B2: mCherry-ephrin-A3 E129K mutant (ligand, UniProt O08545 23-206)
chain: QGPGGALGNRHAVYWNSSNQHLRREGYTVQVNVNDYLDIYCPHYNSSGPGGGAEQYVLYMVNLSGYRTCNASQGSKRWECNRQHASHSPIKFSEKFQRYSAFSLGYKFHAGQEYYYISTPTHNLHWKCLRMKVFVCCASTSHSGEKPVPTLPQFTMGPNVKINVLEDFEGENPQVPKLEKSISG
Consider B2, for which the binding result in test [4] is given as “binds”.

B3: ephrin-A3 AP (ligand, UniProt O08545 23-206)
chain: QGPGGALGNRHAVYWNSSNQHLRREGYTVQVNVNDYLDIYCPHYNSSGPGGGAEQYVLYMVNLSGYRTCNASQGSKRWECNRQHASHSPIKFSEKFQRYSAFSLGYEFHAGQEYYYISTPTHNLHWKCLRMKVFVCCASTSHSGEKPVPTLPQFTMGPNVKINVLEDFEGENPQVPKLEKSISG
Regarding B3, the binding entry in [8] and in test [10] was “binds” in each case.
